Assay results from PMC6478693.
Results are given in words; binding and its absence hold for the method and conditions named. In cells and extracts the contact can be indirect. Some results given as binding are weak or reduced against the parent protein; the word gives no strength. For some of these results: Tags and fused reporters may be left off the sequences shown.

Amino acid sequences for entries named in this document (tags omitted).
UniProt P15056: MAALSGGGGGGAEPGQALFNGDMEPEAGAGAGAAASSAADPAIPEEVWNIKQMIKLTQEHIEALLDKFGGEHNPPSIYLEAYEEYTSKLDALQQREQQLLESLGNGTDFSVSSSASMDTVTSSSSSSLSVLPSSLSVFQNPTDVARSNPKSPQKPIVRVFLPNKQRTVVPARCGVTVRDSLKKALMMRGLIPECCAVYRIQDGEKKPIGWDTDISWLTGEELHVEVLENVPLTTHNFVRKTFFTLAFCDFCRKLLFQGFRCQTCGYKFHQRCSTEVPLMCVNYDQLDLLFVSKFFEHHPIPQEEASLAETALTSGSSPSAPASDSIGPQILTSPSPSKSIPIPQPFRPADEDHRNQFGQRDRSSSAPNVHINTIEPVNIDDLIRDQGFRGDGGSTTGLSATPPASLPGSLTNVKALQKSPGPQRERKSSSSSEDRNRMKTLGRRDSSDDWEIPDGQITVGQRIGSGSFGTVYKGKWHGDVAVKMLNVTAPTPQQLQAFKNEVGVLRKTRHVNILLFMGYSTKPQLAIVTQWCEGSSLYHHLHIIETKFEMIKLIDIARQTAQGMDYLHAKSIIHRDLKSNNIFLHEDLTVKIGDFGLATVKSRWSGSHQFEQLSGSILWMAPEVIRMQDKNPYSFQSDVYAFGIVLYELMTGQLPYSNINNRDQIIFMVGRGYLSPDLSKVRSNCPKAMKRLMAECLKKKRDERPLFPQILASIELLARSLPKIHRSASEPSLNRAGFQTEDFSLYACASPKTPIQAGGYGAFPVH
UniProt Q8C863: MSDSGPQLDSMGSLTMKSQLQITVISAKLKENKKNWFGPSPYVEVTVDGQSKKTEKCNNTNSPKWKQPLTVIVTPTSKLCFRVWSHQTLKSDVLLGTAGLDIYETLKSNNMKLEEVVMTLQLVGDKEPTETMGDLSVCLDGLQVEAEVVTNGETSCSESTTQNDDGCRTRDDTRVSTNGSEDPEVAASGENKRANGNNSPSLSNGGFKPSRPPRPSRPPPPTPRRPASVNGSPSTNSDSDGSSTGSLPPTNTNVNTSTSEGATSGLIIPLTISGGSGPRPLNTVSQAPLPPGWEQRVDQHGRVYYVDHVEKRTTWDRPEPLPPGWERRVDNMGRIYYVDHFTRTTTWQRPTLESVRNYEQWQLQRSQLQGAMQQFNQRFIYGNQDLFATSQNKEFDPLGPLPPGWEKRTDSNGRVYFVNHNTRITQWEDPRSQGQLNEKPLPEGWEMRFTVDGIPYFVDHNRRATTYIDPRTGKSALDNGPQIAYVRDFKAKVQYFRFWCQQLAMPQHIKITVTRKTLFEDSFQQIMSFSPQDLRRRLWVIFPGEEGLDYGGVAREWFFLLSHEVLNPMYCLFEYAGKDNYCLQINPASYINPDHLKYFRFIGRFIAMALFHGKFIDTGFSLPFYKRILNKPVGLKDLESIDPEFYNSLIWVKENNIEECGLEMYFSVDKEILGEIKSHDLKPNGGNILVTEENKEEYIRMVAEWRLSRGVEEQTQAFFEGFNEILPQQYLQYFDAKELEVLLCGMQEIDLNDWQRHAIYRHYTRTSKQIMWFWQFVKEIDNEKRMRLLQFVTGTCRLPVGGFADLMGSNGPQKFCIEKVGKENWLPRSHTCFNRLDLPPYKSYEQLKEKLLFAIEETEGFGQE

Legend:
[1] = target: Flag-BRAF (wild type) (UniProt P15056); test: co-IP; 293T cells transfected with HA-ITCH and Flag-RAF or Flag-BRAF constructs; 10 µM MG132 for 12 h before harvest; lysis in EBC buffer, washes in NETN buffer
[2] = target: T1, Flag-ARAF (UniProt P10398); test: as above
T1 sequence: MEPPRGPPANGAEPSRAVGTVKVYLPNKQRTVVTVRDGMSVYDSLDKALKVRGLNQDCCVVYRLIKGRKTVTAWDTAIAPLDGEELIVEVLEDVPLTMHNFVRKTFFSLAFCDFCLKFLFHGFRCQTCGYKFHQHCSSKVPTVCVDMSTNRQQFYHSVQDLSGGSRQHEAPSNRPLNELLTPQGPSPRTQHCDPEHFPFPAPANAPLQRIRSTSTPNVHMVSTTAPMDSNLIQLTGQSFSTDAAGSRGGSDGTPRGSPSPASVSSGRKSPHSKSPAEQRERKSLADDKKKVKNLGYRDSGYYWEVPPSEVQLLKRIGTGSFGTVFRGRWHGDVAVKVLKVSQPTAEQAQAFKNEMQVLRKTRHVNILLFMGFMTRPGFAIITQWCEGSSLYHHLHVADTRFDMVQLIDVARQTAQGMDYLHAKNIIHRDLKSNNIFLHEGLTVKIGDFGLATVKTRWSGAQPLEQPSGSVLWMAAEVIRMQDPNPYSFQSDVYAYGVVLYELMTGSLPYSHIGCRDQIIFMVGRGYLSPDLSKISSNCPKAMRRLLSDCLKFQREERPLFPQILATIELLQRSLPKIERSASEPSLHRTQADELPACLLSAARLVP

[3] = target: Flag-CRAF (UniProt P04049); test: as above
[4] = target: GST-ITCH (UniProt Q8C863); test: pull-down; agarose-bound GST fusion proteins incubated with in vitro transcribed and translated HA-BRAF, 4 °C, 3-4 h, washes in NETN buffer; only the target purified

Substance | binding [1] | binding [2] | binding [3] | binding [4]
HA-ITCH (from UniProt Q8C863 1-864) (enzyme) | binds | binds | binds | 
In vitro transcribed and translated HA-BRAF (from UniProt P15056 1-766) |  |  |  | binds
